From the supplement of paper PMC10849652
The other results are listed elsewhere or left out.

Chains of the proteins cited; added tags and fusions are not shown. Lines headed by an entry give the natural chain unless they say otherwise; changes in a name come on top.
UniProt Q9NY27: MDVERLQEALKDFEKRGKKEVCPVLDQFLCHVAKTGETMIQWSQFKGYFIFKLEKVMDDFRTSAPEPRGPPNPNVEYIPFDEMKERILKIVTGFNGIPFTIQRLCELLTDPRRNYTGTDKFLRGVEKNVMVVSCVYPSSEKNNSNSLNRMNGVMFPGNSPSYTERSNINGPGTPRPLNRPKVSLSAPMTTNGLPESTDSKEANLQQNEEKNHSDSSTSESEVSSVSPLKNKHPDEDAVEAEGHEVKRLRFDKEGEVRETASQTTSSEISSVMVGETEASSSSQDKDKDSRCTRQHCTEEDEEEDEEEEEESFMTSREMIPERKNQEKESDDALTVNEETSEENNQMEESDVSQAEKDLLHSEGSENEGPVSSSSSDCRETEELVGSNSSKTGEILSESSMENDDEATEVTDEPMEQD
UniProt P30048: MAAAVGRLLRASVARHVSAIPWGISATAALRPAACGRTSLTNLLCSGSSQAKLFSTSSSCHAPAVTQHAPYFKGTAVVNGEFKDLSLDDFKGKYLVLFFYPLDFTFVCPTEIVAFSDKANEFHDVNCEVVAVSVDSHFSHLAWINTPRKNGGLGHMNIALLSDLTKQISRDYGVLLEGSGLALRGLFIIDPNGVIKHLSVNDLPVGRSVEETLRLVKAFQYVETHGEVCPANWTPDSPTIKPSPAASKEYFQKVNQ
UniProt Q06830: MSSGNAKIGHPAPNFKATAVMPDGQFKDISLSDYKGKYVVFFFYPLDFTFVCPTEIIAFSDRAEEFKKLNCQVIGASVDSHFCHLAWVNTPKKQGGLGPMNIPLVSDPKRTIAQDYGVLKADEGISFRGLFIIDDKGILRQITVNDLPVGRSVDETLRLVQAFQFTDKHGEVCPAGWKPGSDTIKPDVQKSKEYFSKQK
UniProt Q92733: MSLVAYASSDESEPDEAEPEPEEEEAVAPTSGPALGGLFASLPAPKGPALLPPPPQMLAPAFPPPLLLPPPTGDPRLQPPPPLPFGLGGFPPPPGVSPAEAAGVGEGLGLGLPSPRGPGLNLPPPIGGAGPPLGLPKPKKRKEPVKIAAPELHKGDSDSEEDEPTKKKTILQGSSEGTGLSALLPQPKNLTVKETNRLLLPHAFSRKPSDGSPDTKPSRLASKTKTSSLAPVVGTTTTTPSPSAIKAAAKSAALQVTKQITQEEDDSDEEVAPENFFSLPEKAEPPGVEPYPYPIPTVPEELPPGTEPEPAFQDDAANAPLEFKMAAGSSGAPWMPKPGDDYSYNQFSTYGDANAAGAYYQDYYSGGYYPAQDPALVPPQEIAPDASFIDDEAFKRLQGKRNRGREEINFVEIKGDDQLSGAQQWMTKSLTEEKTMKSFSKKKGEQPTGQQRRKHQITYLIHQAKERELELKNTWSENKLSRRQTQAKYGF
UniProt O60927: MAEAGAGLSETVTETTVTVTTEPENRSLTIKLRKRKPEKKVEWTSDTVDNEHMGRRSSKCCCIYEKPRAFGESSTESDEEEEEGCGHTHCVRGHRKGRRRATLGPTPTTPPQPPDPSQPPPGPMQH
UniProt Q9Y570: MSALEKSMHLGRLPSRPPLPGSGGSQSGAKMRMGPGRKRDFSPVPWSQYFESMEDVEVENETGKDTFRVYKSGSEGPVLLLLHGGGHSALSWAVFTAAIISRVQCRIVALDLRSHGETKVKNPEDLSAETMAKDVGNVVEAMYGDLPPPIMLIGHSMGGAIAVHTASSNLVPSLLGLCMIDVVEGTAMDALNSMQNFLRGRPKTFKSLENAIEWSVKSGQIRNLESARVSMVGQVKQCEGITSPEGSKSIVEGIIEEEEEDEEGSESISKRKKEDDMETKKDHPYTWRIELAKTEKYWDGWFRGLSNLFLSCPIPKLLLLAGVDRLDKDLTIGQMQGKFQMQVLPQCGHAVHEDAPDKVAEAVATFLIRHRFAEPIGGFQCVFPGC
UniProt Q5H9R7: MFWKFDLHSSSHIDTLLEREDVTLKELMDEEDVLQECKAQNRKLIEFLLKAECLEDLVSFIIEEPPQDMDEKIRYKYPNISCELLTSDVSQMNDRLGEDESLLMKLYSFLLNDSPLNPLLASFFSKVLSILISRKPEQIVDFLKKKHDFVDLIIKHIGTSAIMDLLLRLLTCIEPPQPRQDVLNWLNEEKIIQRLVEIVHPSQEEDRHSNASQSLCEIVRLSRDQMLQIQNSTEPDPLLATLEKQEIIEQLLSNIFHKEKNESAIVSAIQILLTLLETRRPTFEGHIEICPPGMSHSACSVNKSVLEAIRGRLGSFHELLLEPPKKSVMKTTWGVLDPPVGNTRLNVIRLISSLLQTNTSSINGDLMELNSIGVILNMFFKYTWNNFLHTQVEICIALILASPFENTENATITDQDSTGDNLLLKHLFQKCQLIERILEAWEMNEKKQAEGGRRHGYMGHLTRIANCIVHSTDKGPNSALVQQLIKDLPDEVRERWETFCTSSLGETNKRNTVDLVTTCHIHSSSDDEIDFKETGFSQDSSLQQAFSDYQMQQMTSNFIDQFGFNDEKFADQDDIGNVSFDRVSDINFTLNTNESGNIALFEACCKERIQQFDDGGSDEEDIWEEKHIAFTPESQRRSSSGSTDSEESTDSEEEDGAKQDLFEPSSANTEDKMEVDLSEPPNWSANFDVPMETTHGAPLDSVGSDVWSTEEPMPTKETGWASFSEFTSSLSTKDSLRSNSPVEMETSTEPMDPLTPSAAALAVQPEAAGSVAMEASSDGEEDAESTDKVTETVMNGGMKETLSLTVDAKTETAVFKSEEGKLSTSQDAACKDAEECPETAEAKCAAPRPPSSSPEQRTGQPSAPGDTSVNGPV
UniProt P48454, whole entry, looked up: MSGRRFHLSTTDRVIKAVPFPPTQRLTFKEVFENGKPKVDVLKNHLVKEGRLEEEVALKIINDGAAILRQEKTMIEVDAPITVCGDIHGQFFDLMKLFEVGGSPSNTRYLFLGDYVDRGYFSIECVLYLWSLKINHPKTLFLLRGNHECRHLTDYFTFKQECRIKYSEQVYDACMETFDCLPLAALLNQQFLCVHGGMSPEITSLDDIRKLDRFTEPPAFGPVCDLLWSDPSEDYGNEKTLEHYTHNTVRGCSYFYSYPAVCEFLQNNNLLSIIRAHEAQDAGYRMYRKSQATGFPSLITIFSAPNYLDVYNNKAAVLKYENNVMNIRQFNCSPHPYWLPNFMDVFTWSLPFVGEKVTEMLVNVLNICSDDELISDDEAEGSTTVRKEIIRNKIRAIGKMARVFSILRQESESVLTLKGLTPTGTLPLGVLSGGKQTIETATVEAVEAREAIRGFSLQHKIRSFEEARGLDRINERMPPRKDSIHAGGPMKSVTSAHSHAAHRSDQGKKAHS
UniProt Q96SB3: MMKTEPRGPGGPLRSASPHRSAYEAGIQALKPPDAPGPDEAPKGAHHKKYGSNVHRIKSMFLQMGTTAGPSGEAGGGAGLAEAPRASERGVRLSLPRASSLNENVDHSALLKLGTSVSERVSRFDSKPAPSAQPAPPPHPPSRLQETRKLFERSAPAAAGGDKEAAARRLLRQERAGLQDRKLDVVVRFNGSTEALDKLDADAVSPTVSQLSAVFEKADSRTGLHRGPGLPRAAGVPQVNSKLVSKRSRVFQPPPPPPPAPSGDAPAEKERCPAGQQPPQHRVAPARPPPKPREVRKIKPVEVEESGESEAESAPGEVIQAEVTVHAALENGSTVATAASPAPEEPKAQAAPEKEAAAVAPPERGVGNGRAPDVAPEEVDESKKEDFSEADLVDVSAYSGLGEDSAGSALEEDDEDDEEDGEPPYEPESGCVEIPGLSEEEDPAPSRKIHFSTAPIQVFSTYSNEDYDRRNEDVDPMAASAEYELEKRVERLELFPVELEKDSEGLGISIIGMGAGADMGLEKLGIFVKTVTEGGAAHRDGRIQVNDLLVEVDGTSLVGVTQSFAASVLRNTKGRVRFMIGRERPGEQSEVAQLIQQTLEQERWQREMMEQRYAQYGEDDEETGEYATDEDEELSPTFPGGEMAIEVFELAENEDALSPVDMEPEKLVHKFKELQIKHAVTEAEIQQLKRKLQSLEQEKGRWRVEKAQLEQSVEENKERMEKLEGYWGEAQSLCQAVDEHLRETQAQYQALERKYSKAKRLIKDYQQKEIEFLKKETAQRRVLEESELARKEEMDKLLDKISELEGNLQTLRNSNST
UniProt Q8WY54: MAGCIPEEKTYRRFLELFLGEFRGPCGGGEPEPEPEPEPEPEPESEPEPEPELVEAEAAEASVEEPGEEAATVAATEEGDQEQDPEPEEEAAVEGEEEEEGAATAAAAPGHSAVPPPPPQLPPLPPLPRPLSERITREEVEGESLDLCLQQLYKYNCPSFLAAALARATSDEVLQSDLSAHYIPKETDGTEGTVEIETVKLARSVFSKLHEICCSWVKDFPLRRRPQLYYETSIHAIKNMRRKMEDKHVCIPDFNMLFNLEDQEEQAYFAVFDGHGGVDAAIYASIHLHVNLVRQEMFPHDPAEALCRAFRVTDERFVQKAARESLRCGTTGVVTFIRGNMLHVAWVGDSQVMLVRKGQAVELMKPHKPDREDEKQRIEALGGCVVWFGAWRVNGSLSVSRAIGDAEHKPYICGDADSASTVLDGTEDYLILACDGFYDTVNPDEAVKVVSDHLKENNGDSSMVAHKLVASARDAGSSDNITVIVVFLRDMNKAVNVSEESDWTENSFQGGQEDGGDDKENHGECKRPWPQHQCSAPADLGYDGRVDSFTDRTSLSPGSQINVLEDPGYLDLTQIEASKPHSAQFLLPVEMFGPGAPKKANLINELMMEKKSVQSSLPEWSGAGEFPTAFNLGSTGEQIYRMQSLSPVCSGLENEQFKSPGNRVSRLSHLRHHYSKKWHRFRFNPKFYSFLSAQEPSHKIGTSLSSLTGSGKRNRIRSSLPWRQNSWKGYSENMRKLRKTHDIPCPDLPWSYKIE
UniProt P11908: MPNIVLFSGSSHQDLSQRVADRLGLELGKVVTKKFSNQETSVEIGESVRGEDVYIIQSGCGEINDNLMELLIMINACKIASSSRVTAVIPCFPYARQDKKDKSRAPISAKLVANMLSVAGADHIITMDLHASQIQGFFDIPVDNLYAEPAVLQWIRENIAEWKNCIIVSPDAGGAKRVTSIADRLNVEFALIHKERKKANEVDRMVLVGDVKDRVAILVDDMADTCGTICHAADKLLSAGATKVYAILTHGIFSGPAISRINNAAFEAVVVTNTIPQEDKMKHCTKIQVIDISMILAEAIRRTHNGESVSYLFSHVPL
UniProt P62140, whole entry, looked up: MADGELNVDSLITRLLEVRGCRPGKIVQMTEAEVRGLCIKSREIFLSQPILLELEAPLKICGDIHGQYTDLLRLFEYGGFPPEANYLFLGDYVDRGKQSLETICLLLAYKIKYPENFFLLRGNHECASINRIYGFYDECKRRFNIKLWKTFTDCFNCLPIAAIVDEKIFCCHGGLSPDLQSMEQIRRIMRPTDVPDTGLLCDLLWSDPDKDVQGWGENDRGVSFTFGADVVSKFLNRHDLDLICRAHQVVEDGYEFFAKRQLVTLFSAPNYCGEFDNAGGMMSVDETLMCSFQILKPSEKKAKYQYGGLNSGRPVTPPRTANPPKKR
UniProt Q4J6C6, whole entry, looked up: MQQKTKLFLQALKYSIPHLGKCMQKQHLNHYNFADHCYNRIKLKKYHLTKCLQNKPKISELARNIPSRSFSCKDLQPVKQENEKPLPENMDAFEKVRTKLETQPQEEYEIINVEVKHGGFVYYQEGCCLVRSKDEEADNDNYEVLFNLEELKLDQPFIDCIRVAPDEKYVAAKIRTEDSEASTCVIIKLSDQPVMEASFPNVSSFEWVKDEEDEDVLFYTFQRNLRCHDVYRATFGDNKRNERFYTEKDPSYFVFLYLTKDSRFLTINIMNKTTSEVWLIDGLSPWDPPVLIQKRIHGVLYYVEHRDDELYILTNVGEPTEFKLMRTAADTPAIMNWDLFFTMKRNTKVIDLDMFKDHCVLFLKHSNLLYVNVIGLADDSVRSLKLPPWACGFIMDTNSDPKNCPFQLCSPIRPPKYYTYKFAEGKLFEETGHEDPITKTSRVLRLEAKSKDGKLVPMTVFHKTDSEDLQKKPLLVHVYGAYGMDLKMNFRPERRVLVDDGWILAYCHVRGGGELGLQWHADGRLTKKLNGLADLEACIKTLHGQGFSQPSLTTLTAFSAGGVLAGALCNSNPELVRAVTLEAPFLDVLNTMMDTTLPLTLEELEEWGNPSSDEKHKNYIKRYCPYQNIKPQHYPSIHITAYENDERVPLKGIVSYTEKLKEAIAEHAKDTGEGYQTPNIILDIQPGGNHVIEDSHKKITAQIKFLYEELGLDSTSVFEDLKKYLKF

What was measured:
Experiment in all cases: log2 fold change, soluble protein after heating vs DMSO (PISA); higher = thermal stabilisation; K562 cells, 10 uM, 30 min; active = over 0.2 and 3.5 SD of the protein, either way, in both replicates (recomputed)
[1] = compound: CS(=O)(=O)c1ccc(-c2cnc(N)c(C(=O)Nc3ccccc3)n2)cc1
Method in brief: (§1)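 Soluble protein was quantified by TMTpro 16plex LC-MS/MS after channel sums were equalised. It was obtained as the supernatant after 21,000xg for 90 min from pooled aliquots of K562 cells (2×10^6 cells/mL, 10 μM compound, 30 min) heated for 3 min across 48°C-58°C and extracted in PBS with 0.5% NP-40 at 4°C. Thermal stability values are relative to control samples and come from duplicates. They are given as log2 fold changes.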

crizotinib = compound: C[C@@H](Oc1cc(-c2cnn(C3CCNCC3)c2)cnc1N)c1c(Cl)ccc(F)c1Cl [crizotinib]
Method in brief: as §1

[2] = compound: C[C@@H]1COCCN1C2=NC(=NC(=C2)C3(CC3)S(=O)(=O)C)C4=C5C=CNC5=CC=C4
Method in brief: as §1

[3] = compound: C[C@H](C1=CC=C(C=C1)C(=O)NC2=C3C=CNC3=NC=C2)N
Method in brief: as §1

duvelisib = compound: C[C@H](Nc1ncnc2nc[nH]c12)c1cc2cccc(Cl)c2c(=O)n1-c1ccccc1 [duvelisib]
Method in brief: as §1

gandotinib = compound: Cc1cc(Nc2cc(CN3CCOCC3)c3nc(C)c(Cc4ccc(Cl)cc4F)n3n2)n[nH]1 [gandotinib]
Method in brief: as §1

tozasertib = compound: Cc1cc(Nc2cc(N3CCN(C)CC3)nc(Sc3ccc(NC(=O)C4CC4)cc3)n2)n[nH]1 [tozasertib]
Method in brief: as §1

[4] = compound: Cc1cc(SCc2sc(-c3ccc(C(F)(F)F)cc3)nc2C)ccc1OCC(=O)O
Method in brief: as §1

doramapimod = compound: Cc1ccc(-n2nc(C(C)(C)C)cc2NC(=O)Nc2ccc(OCCN3CCOCC3)c3ccccc23)cc1 [doramapimod]
Method in brief: as §1

ispinesib = compound: Cc1ccc(C(=O)N(CCCN)[C@@H](c2nc3cc(Cl)ccc3c(=O)n2Cc2ccccc2)C(C)C)cc1 [ispinesib]
Method in brief: as §1

bafetinib = compound: Cc1ccc(NC(=O)c2ccc(CN3CC[C@H](N(C)C)C3)c(C(F)(F)F)c2)cc1Nc1nccc(-c2cncnc2)n1 [bafetinib]
Method in brief: as §1

[5] = compound: Cc1cccc(CC(=O)N2CCc3c2ccc(-c2cn(C)c4ncnc(N)c24)c3F)n1
Method in brief: as §1

nilotinib = compound: Cc1cn(-c2cc(NC(=O)c3ccc(C)c(Nc4nccc(-c5cccnc5)n4)c3)cc(C(F)(F)F)c2)cn1 [nilotinib]
Method in brief: as §1

[6] = compound: Cc1nc(Nc2n[nH]c3c2CN(C(=O)N[C@H](CN(C)C)c2ccccc2)C3(C)C)c2sccc2n1
Method in brief: as §1

dasatinib = compound: Cc1nc(Nc2ncc(C(=O)Nc3c(C)cccc3Cl)s2)cc(N2CCN(CCO)CC2)n1 [dasatinib]
Method in brief: as §1

[7] = compound: Cc1ncc(-c2ccnc(Nc3ccc(S(C)(=O)=O)cc3)n2)n1C(C)C
Method in brief: as §1

[8] = compound: Cn1cc(-c2ccc3c(c2)CCN3C(=O)Cc2cccc(C(F)(F)F)c2)c2c(N)ncnc21
Method in brief: as §1

[9] = compound: Cn1cc(-c2ccc3nnc(C(F)(F)c4ccc5ncccc5c4)n3n2)cn1
Method in brief: as §1

tipifarnib = compound: Cn1cncc1[C@@](N)(c1ccc(Cl)cc1)c1ccc2c(c1)c(-c1cccc(Cl)c1)cc(=O)n2C [tipifarnib]
Method in brief: as §1

mubritinib = compound: FC(F)(F)c1ccc(/C=C/c2nc(COc3ccc(CCCCn4ccnn4)cc3)co2)cc1 [mubritinib]
Method in brief: as §1

Measured: log2 fold change

PPP4R2 (UniProt Q9NY27)
inactive: [1] -0.015 | crizotinib 0.064 | [2] 0 | [3] -0.099 | duvelisib -0.041 | gandotinib 0.001 | tozasertib -0.02 | [4] -0.076 | doramapimod -0.061 | ispinesib 0.039 | bafetinib -0.029 | [5] 0.023 | nilotinib 0.007 | [6] -0.018 | dasatinib 0.007 | [7] -0.022 | [8] -0.008 | [9] 0.011 | tipifarnib 0.049 | mubritinib 0.053

PRDX3 (UniProt P30048)
inactive: [1] 0.031 | crizotinib 0.025 | [2] -0.006 | [3] -0.203 | duvelisib -0.02 | gandotinib 0.032 | tozasertib 0 | [4] -0.035 | doramapimod -0.009 | ispinesib 0.059 | bafetinib -0.046 | [5] -0.024 | nilotinib 0.046 | [6] 0.013 | dasatinib 0.07 | [7] -0.017 | [8] -0.064 | [9] 0.001 | tipifarnib 0.031 | mubritinib 0.04

PRDX1 (UniProt Q06830)
inactive: [1] 0.047 | crizotinib -0.02 | [2] 0.05 | [3] -0.043 | duvelisib 0.005 | gandotinib -0.014 | tozasertib -0.035 | [4] -0.013 | doramapimod -0.012 | ispinesib 0.042 | bafetinib -0.012 | [5] 0.008 | nilotinib -0.005 | [6] -0.004 | dasatinib 0.004 | [7] -0.012 | [8] 0.052 | [9] 0.019 | tipifarnib 0.04 | mubritinib 0.044

PRCC (UniProt Q92733)
inactive: [1] 0.019 | crizotinib 0.011 | [2] -0.028 | [3] 0.038 | duvelisib 0.032 | gandotinib 0.04 | tozasertib -0.015 | [4] -0.059 | doramapimod 0.003 | ispinesib 0 | bafetinib -0.06 | [5] -0.017 | nilotinib 0.049 | [6] -0.039 | dasatinib 0.02 | [7] 0.019 | [8] -0.037 | [9] -0.029 | tipifarnib 0.077 | mubritinib 0.022

PPP1R11 (UniProt O60927)
inactive: [1] 0.053 | crizotinib 0.038 | [2] 0.09 | [3] -0.024 | duvelisib -0.058 | gandotinib 0.103 | tozasertib -0.027 | [4] -0.082 | doramapimod 0.018 | ispinesib -0.01 | bafetinib -0.072 | [5] -0.008 | nilotinib 0 | [6] -0.029 | dasatinib 0.127 | [7] 0.033 | [8] 0.028 | [9] 0.009 | tipifarnib 0.024 | mubritinib 0.019

PPME1 (UniProt Q9Y570)
inactive: [1] 0.046 | crizotinib 0.022 | [2] 0.026 | [3] -0.017 | duvelisib 0.037 | gandotinib 0 | tozasertib 0.018 | [4] 0.019 | doramapimod -0.015 | ispinesib 0.102 | bafetinib -0.023 | [5] -0.007 | nilotinib -0.001 | [6] 0.007 | dasatinib -0.017 | [7] -0.008 | [8] 0.028 | [9] 0.025 | tipifarnib -0.031 | mubritinib 0.031

PPP6R3 isoform 5 (UniProt Q5H9R7)
inactive: [1] 0.013 | crizotinib 0.035 | [2] 0.092 | [3] -0.075 | duvelisib 0.021 | gandotinib -0.022 | tozasertib 0.014 | [4] -0.006 | doramapimod -0.007 | ispinesib 0.025 | bafetinib -0.062 | [5] 0.011 | nilotinib 0.015 | [6] -0.002 | dasatinib 0.011 | [7] -0.014 | [8] 0.029 | [9] 0 | tipifarnib 0.038 | mubritinib 0.05

PPP1R18 (UniProt Q6NYC8)
inactive: [1] 0 | crizotinib 0.022 | [2] 0.11 | [3] -0.052 | duvelisib 0.004 | gandotinib -0.081 | tozasertib 0.028 | [4] 0.019 | doramapimod 0.041 | ispinesib 0.02 | bafetinib -0.067 | [5] -0.009 | nilotinib -0.05 | [6] -0.025 | dasatinib 0.013 | [7] -0.063 | [8] 0.005 | [9] 0.003 | tipifarnib -0.008 | mubritinib 0.046

Reprinted from the entries so far (3 entries):
PRCC (UniProt Q92733)
inactive: [1] 0.019 | crizotinib 0.011 | [2] -0.028 | [3] 0.038 | duvelisib 0.032 | gandotinib 0.04 | tozasertib -0.015 | [4] -0.059 | doramapimod 0.003 | ispinesib 0 | bafetinib -0.06 | [5] -0.017 | nilotinib 0.049 | [6] -0.039 | dasatinib 0.02 | [7] 0.019 | [8] -0.037 | [9] -0.029 | tipifarnib 0.077 | mubritinib 0.022

PPP1R11 (UniProt O60927)
inactive: [1] 0.053 | crizotinib 0.038 | [2] 0.09 | [3] -0.024 | duvelisib -0.058 | gandotinib 0.103 | tozasertib -0.027 | [4] -0.082 | doramapimod 0.018 | ispinesib -0.01 | bafetinib -0.072 | [5] -0.008 | nilotinib 0 | [6] -0.029 | dasatinib 0.127 | [7] 0.033 | [8] 0.028 | [9] 0.009 | tipifarnib 0.024 | mubritinib 0.019

PPME1 (UniProt Q9Y570)
inactive: [1] 0.046 | crizotinib 0.022 | [2] 0.026 | [3] -0.017 | duvelisib 0.037 | gandotinib 0 | tozasertib 0.018 | [4] 0.019 | doramapimod -0.015 | ispinesib 0.102 | bafetinib -0.023 | [5] -0.007 | nilotinib -0.001 | [6] 0.007 | dasatinib -0.017 | [7] -0.008 | [8] 0.028 | [9] 0.025 | tipifarnib -0.031 | mubritinib 0.031

(listing goes on)

PPP3CC isoform 3 (UniProt P48454)
inactive: [1] 0.054 | crizotinib -0.076 | [2] 0.106 | [3] -0.039 | duvelisib 0.025 | gandotinib 0.075 | tozasertib 0.035 | [4] 0.024 | doramapimod 0.017 | ispinesib -0.05 | bafetinib -0.059 | [5] 0.012 | nilotinib -0.073 | [6] 0.036 | dasatinib -0.021 | [7] -0.007 | [8] 0.023 | [9] -0.016 | tipifarnib -0.062 | mubritinib 0.052

PPP1R9B (UniProt Q96SB3)
inactive: [1] 0.015 | crizotinib 0.037 | [2] -0.222 | [3] 0.12 | duvelisib -0.088 | gandotinib 0.046 | tozasertib 0.067 | [4] -0.18 | doramapimod 0.025 | ispinesib -0.04 | bafetinib 0.124 | [5] -0.099 | nilotinib -0.195 | [6] 0.05 | dasatinib 0.228 | [7] 0.001 | [8] -0.306 | [9] -0.148 | tipifarnib -0.006 | mubritinib -0.045

PPM1E (UniProt Q8WY54)
inactive: [1] 0.005 | crizotinib 0.011 | [2] 0.043 | [3] -0.028 | duvelisib -0.009 | gandotinib -0.068 | tozasertib 0.044 | [4] 0.089 | doramapimod 0.003 | ispinesib -0.032 | bafetinib -0.003 | [5] -0.014 | nilotinib 0.045 | [6] 0.033 | dasatinib -0.075 | [7] -0.074 | [8] 0.107 | [9] 0.023 | tipifarnib 0.006 | mubritinib 0.031

PRPS2 isoform 2 (UniProt P11908)
inactive: [1] -0.004 | crizotinib 0.014 | [2] 0.036 | [3] 0.016 | duvelisib 0.01 | gandotinib -0.002 | tozasertib -0.016 | [4] 0.016 | doramapimod 0 | ispinesib 0.027 | bafetinib 0.023 | [5] 0.017 | nilotinib -0.01 | [6] 0.052 | dasatinib 0 | [7] 0.021 | [8] -0.032 | [9] 0.017 | tipifarnib -0.008 | mubritinib 0.022

PRR12 (UniProt Q9ULL5)
inactive: [1] 0.242

PRPF4 (UniProt O43172)
inactive: [1] -0.014 | crizotinib -0.04 | [2] 0.044 | [3] -0.02 | duvelisib 0.009 | gandotinib -0.052 | tozasertib 0.018 | [4] 0.029 | doramapimod -0.035 | ispinesib 0.001 | bafetinib 0.004 | [5] 0.049 | nilotinib 0.009 | [6] -0.098 | dasatinib -0.078 | [7] -0.103 | [8] 0.015 | [9] -0.008 | tipifarnib -0.028 | mubritinib 0.029

PPP1CB (UniProt P62140)
inactive: [1] 0.006 | crizotinib -0.001 | [2] 0.103 | [3] -0.129 | duvelisib 0.033 | gandotinib -0.041 | tozasertib 0.028 | [4] 0.015 | doramapimod -0.006 | ispinesib 0.002 | bafetinib -0.035 | [5] -0.054 | nilotinib -0.031 | [6] -0.004 | dasatinib -0.011 | [7] -0.039 | [8] 0.058 | [9] 0.025 | tipifarnib -0.001 | mubritinib -0.007

PRPF8 (UniProt Q6P2Q9)
inactive: [1] -0.036 | crizotinib 0.018 | [2] -0.134 | [3] 0.114 | duvelisib -0.013 | gandotinib 0.021 | tozasertib 0.019 | [4] 0.026 | doramapimod 0.065 | ispinesib 0.046 | bafetinib 0.081 | [5] 0 | nilotinib 0.011 | [6] -0.003 | dasatinib -0.007 | [7] 0.033 | [8] -0.16 | [9] -0.091 | tipifarnib 0 | mubritinib -0.011

PREPL (UniProt Q4J6C6)
inactive: [1] 0.059 | crizotinib -0.031 | [2] 0.059 | [3] -0.041 | duvelisib 0.029 | gandotinib -0.078 | tozasertib -0.047 | [4] 0.055 | doramapimod 0.023 | ispinesib 0.002 | bafetinib -0.069 | [5] 0.024 | nilotinib 0.005 | [6] -0.006 | dasatinib -0.07 | [7] -0.014 | [8] 0.027 | [9] -0.001 | tipifarnib -0.024 | mubritinib 0.059
